Laboratory results published in the supplement of paper PMC10849652.
Some of the results follow.

Protein sequences, listed by entry. Tags and fused reporters are not part of them. Lines headed by an entry give the natural chain unless they say otherwise; changes in a name come on top.
UniProt O60232: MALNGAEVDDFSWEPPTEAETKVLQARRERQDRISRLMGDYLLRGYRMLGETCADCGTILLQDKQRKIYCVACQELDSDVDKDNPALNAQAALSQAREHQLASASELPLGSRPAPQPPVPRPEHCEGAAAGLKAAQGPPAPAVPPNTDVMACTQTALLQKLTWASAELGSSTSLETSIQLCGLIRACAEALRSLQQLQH
UniProt Q8NHG8: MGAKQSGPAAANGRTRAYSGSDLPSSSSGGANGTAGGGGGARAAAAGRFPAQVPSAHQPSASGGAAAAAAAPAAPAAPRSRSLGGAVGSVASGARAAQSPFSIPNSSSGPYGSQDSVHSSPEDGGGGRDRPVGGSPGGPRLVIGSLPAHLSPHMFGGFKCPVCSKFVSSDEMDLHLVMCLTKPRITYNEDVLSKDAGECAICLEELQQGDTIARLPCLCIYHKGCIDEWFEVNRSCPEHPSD
UniProt O75312: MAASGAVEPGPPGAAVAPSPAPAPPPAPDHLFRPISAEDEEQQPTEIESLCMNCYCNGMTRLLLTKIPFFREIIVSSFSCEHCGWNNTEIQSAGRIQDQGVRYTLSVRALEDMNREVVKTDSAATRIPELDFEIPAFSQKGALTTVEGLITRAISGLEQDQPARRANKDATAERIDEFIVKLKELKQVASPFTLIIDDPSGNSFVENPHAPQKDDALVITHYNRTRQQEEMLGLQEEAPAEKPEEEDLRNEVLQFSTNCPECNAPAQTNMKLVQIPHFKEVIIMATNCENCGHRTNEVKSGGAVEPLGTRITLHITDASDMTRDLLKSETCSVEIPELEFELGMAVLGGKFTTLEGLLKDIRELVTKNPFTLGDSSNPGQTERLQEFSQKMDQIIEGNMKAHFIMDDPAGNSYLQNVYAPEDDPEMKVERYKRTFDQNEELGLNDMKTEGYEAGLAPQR
UniProt O95218: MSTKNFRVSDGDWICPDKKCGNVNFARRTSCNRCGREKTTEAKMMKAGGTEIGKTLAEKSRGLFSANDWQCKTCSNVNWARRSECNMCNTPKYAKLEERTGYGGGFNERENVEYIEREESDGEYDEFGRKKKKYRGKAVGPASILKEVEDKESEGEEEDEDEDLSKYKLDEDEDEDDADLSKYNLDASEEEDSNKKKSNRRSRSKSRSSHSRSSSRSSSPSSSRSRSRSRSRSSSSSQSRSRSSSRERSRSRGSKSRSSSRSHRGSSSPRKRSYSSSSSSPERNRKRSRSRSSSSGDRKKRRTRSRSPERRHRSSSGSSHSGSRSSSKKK
UniProt Q16670: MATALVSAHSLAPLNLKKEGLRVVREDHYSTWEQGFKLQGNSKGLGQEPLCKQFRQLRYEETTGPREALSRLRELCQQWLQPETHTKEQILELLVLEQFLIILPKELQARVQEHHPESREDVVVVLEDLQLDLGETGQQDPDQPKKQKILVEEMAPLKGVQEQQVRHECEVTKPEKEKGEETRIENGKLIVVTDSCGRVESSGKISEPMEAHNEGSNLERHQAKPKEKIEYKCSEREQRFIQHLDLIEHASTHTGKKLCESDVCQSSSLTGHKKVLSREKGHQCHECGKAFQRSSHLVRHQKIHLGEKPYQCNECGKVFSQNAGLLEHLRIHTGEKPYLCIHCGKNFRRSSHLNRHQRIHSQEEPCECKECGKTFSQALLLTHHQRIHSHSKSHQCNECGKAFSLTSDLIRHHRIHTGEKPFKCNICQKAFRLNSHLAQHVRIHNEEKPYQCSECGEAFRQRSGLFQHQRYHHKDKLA
UniProt Q19AV6: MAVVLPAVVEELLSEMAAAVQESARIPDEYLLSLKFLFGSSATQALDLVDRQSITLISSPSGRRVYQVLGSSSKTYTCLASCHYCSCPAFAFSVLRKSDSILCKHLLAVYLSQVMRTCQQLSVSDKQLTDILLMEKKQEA
UniProt O43264: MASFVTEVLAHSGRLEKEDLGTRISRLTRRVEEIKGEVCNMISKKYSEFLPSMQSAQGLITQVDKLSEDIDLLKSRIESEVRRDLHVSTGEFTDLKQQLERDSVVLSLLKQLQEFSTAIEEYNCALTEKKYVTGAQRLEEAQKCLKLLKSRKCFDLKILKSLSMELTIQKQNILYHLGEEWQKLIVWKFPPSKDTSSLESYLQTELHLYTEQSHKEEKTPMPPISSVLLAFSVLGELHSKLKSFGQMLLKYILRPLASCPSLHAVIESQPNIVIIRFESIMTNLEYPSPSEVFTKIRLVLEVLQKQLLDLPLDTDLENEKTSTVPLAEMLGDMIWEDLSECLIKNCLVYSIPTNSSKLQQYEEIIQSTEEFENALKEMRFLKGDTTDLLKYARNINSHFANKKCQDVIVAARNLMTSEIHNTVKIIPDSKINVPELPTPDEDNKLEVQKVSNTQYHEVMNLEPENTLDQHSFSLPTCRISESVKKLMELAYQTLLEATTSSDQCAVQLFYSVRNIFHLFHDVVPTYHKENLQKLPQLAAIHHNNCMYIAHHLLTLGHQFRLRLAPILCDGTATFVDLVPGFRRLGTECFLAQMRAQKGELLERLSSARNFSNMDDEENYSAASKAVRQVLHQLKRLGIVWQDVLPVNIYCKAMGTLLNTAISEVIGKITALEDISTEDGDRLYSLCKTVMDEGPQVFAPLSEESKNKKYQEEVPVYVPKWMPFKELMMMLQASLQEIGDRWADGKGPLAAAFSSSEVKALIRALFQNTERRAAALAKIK
UniProt Q8ND25: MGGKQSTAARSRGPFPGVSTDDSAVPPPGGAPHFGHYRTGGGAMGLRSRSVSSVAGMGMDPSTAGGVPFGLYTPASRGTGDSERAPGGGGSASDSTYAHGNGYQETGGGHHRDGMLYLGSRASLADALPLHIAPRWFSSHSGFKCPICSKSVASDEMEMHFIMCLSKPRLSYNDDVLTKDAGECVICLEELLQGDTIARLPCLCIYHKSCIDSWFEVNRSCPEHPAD
UniProt Q9Y5A6: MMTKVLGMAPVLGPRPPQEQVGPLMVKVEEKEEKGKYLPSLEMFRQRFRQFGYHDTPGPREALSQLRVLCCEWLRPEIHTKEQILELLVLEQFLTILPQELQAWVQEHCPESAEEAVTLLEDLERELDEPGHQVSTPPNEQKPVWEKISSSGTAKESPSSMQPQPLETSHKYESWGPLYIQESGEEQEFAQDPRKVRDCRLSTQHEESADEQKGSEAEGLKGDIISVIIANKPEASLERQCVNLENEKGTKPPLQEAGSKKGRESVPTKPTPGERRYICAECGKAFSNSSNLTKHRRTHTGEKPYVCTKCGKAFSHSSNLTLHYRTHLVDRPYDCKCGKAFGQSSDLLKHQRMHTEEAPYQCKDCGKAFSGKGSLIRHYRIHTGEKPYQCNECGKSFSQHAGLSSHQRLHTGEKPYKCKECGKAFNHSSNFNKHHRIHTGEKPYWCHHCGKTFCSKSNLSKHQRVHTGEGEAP

What was measured:
Test in all cases: log2 fold change, soluble protein after heating vs DMSO (PISA); higher = thermal stabilisation; K562 cells, 10 uM, 30 min; active = over 0.2 and 3.5 SD of the protein, either way, in both replicates (recomputed)
ZNRD2 [1] = molecular target: ZNRD2 (UniProt G3V1B8)
How it was run: (§1)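 K562 cells at 2×10^6 cells/mL were exposed to 10 μM compound for 30 min, then aliquots were heated for 3 min across 48°C-58°C, pooled, and extracted in PBS containing 0.5% NP-40 at 4°C. The supernatant after 21,000xg for 90 min was taken as soluble protein and measured by TMTpro 16plex LC-MS/MS with channel sums equalised. Thermal stability is reported relative to control samples, with values from duplicates. Fold changes are given on a log2 scale.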

ZNRD2 [2] = molecular target: ZNRD2 (UniProt O60232)
How it was run: as §1

ZNRF2 = ZNRF2 (UniProt Q8NHG8)
How it was run: as §1

ZPR1 = ZPR1 (UniProt O75312)
How it was run: as §1

ZRANB2 = ZRANB2 (UniProt O95218)
How it was run: as §1

ZSCAN26 = ZSCAN26 (UniProt Q16670)
How it was run: as §1

ZSWIM7 = ZSWIM7 (UniProt Q19AV6)
How it was run: as §1

ZW10 = ZW10 (UniProt O43264)
How it was run: as §1

ZNRF1 isoform 2 = ZNRF1 isoform 2 (UniProt Q8ND25)
How it was run: as §1

ZSCAN21 = ZSCAN21 (UniProt Q9Y5A6)
How it was run: as §1

Measured: log2 fold change

Cc1ccc(NC(=O)c2cccc(C(C)(C)C#N)c2)cc1Nc1ccc2ncn(C)c(=O)c2c1
inactive: ZNRD2 [1] 0.05 | ZNRD2 [2] 0.001 | ZNRF2 = 0.022 | ZPR1 = 0.021 | ZRANB2 = 0.034 | ZSCAN26 = 0.008 | ZSWIM7 = 0.184 | ZW10 = 0.015

O=C(CCCCCCC(=O)Nc1ccccc1)NO [vorinostat]
inactive: ZNRD2 [2] -0.059 | ZNRF1 isoform 2 = 0.002 | ZNRF2 = 0.009 | ZPR1 = -0.007 | ZRANB2 = -0.03 | ZW10 = 0.085

O=C(Nc1nc2ccccc2n1CCN1CCOCC1)c1cccc([N+](=O)[O-])c1 [IRAK-1-4 Inhibitor I]
inactive: ZNRD2 [2] 0.017 | ZNRF1 isoform 2 = 0.012 | ZPR1 = 0.013 | ZRANB2 = -0.008 | ZW10 = -0.076

Cc1cn(-c2cc(NC(=O)c3ccc(C)c(Nc4nccc(-c5cccnc5)n4)c3)cc(C(F)(F)F)c2)cn1 [nilotinib]
inactive: ZNRD2 [2] -0.019 | ZNRF1 isoform 2 = 0.008 | ZNRF2 = 0.072 | ZPR1 = -0.031 | ZRANB2 = 0.052 | ZSWIM7 = 0.071 | ZW10 = -0.088

CNC(=O)c1ccc(Nc2ncc(C(F)(F)F)c(NCc3nccnc3N(C)S(C)(=O)=O)n2)cc1 [defactinib]
inactive: ZNRD2 [2] -0.051 | ZNRF1 isoform 2 = 0.09 | ZNRF2 = 0.079 | ZPR1 = -0.028 | ZRANB2 = -0.046 | ZSWIM7 = 0.111 | ZW10 = -0.083

Pulled by structure from the entries so far, 2 records:
Cc1cn(-c2cc(NC(=O)c3ccc(C)c(Nc4nccc(-c5cccnc5)n4)c3)cc(C(F)(F)F)c2)cn1 [nilotinib]
inactive: ZNRD2 [2] -0.019 | ZNRF1 isoform 2 = 0.008 | ZNRF2 = 0.072 | ZPR1 = -0.031 | ZRANB2 = 0.052 | ZSWIM7 = 0.071 | ZW10 = -0.088

O=C(CCCCCCC(=O)Nc1ccccc1)NO [vorinostat]
inactive: ZNRD2 [2] -0.059 | ZNRF1 isoform 2 = 0.002 | ZNRF2 = 0.009 | ZPR1 = -0.007 | ZRANB2 = -0.03 | ZW10 = 0.085

(further entries)

CNc1nc(-c2ccc3c(N)n[nH]c3c2)cc(N2C[C@@H](C(=O)NC3CCCCC3)CC[C@H]2C)n1
inactive: ZNRD2 [2] 0.028 | ZNRF1 isoform 2 = -0.112 | ZNRF2 = -0.02 | ZPR1 = -0.038 | ZRANB2 = -0.066 | ZW10 = 0.009

C[C@@H](Oc1cc(-c2cnn(C3CCNCC3)c2)cnc1N)c1c(Cl)ccc(F)c1Cl [crizotinib]
inactive: ZNRD2 [2] 0.149 | ZNRF1 isoform 2 = -0.009 | ZPR1 = 0.082 | ZRANB2 = 0.014 | ZW10 = -0.137

Cc1cc(Nc2cc(CN3CCOCC3)c3nc(C)c(Cc4ccc(Cl)cc4F)n3n2)n[nH]1 [gandotinib]
inactive: ZNRD2 [2] 0.019 | ZNRF1 isoform 2 = 0.034 | ZNRF2 = 0.013 | ZPR1 = 0.014 | ZRANB2 = 0.064 | ZW10 = -0.108

Cn1c2cc(S(C)=O)sc2c2cnn(Cc3cccc(N)c3)c(=O)c21 (configuration not stated)
inactive: ZNRD2 [2] -0.059 | ZNRF1 isoform 2 = -0.049 | ZNRF2 = -0.062 | ZPR1 = -0.044 | ZRANB2 = -0.006 | ZW10 = 0.115

Cc1cccc(CC(=O)N2CCc3c2ccc(-c2cn(C)c4ncnc(N)c24)c3F)n1
inactive: ZNRD2 [2] 0.042 | ZNRF1 isoform 2 = 0.043 | ZNRF2 = -0.132 | ZPR1 = 0.009 | ZRANB2 = -0.065 | ZW10 = 0.034

NCC(=O)Nc1ccc(-n2nc(C(F)(F)F)cc2-c2ccc3c(ccc4ccccc43)c2)cc1
inactive: ZNRD2 [2] -0.008 | ZNRF1 isoform 2 = 0.054 | ZNRF2 = 0.091 | ZPR1 = -0.024 | ZRANB2 = 0.067 | ZSWIM7 = -0.021 | ZW10 = -0.007

CN1CCC(CNc2ccc3ncc(-c4cccc(OC(F)(F)F)c4)n3n2)CC1
inactive: ZNRD2 [2] 0.191 | ZNRF1 isoform 2 = -0.108 | ZNRF2 = 0.008 | ZPR1 = -0.041 | ZRANB2 = 0.01 | ZW10 = -0.108

COc1ccc(Cn2ccc3ccc(C(=O)NO)cc32)cc1
inactive: ZNRD2 [2] -0.016 | ZNRF1 isoform 2 = 0.239 | ZPR1 = -0.001 | ZRANB2 = -0.022 | ZW10 = -0.004

CN1CCN(CCOc2cc(OC3CCOCC3)c3c(Nc4c(Cl)ccc5c4OCO5)ncnc3c2)CC1 [saracatinib]
inactive: ZNRD2 [2] -0.026 | ZNRF1 isoform 2 = -0.022 | ZNRF2 = 0.051 | ZPR1 = 0.021 | ZRANB2 = 0.044 | ZW10 = -0.031

c1cn2cc(-c3ccc4cn[nH]c4c3)nc(Nc3ccc(N4CCOCC4)cc3)c2n1 [entospletinib]
inactive: ZNRD2 [2] 0.023 | ZNRF1 isoform 2 = 0.041 | ZNRF2 = 0.124 | ZPR1 = 0.005 | ZSCAN26 = -0.125 | ZSWIM7 = 0.188

Cc1cc(SCc2sc(-c3ccc(C(F)(F)F)cc3)nc2C)ccc1OCC(=O)O
inactive: ZNRD2 [2] 0.023 | ZNRF1 isoform 2 = -0.013 | ZNRF2 = 0.015 | ZPR1 = 0.015 | ZRANB2 = -0.086 | ZW10 = 0.088

Cc1ccc(Sc2cncc3sc(C(N)=O)cc23)cc1
inactive: ZNRD2 [2] 0.027 | ZNRF1 isoform 2 = 0.036 | ZNRF2 = 0.067 | ZPR1 = 0.018 | ZRANB2 = -0.04 | ZSCAN26 = -0.092 | ZW10 = 0.018

CCCS(=O)(=O)Nc1ccc(F)c(C(=O)c2c[nH]c3ncc(-c4ccc(Cl)cc4)cc23)c1F [vemurafenib]
inactive: ZNRD2 [2] 0.042 | ZNRF1 isoform 2 = -0.087 | ZNRF2 = 0.018 | ZPR1 = 0.026 | ZRANB2 = -0.014 | ZSWIM7 = -0.205 | ZW10 = 0.025

CN(C)CC(=O)Nc1ccc2[nH]c(=O)c3ccccc3c2c1
inactive: ZNRD2 [2] 0.015 | ZNRF1 isoform 2 = -0.021 | ZNRF2 = -0.029 | ZPR1 = 0.008 | ZRANB2 = -0.048 | ZSWIM7 = 0.12 | ZW10 = 0.013

COc1cc2ncnc(Nc3ccc(F)c(Cl)c3)c2cc1OCCCN1CCOCC1 [gefitinib]
inactive: ZNRD2 [2] 0.014 | ZNRF1 isoform 2 = -0.02 | ZNRF2 = -0.028 | ZPR1 = 0.005 | ZRANB2 = 0.034 | ZSWIM7 = -0.072 | ZW10 = 0.135

CN1CC[C@H](c2c(O)cc(O)c3c(=O)cc(-c4ccccc4Cl)oc23)[C@H](O)C1 [alvocidib]
inactive: ZNRD2 [2] -0.034 | ZNRF1 isoform 2 = -0.085 | ZNRF2 = -0.02 | ZPR1 = -0.077 | ZSCAN21 = 0

Cc1nc(Nc2n[nH]c3c2CN(C(=O)N[C@H](CN(C)C)c2ccccc2)C3(C)C)c2sccc2n1
inactive: ZNRD2 [2] 0.018 | ZNRF1 isoform 2 = 0.147 | ZNRF2 = 0.168 | ZPR1 = -0.027 | ZRANB2 = -0.032 | ZSWIM7 = -0.04 | ZW10 = -0.11

Cc1ccc(-n2nc(C(C)(C)C)cc2NC(=O)Nc2ccc(OCCN3CCOCC3)c3ccccc23)cc1 [doramapimod]
inactive: ZNRD2 [2] 0.03 | ZNRF1 isoform 2 = -0.11 | ZPR1 = -0.034 | ZRANB2 = -0.014 | ZW10 = 0.048

CC[C@H](C)n1cc(C)c2c(C(=O)NCc3c(C)cc(C)[nH]c3=O)cc(-c3ccc(N4CCNCC4)nc3)cc21
inactive: ZNRD2 [2] -0.028 | ZNRF1 isoform 2 = 0.103 | ZNRF2 = 0.142 | ZPR1 = 0.033 | ZRANB2 = 0 | ZSWIM7 = 0.124 | ZW10 = 0.077

CC1=C(C(=O)Nc2cc3cn[nH]c3cc2F)C(c2ccc(C(F)(F)F)cc2)CC(=O)N1 (configuration not stated)
inactive: ZNRD2 [2] 0.044 | ZNRF1 isoform 2 = 0.127 | ZNRF2 = -0.047 | ZPR1 = -0.013 | ZSWIM7 = -0.017

CC(C)N(C[C@H]1O[C@@H](n2cnc3c(N)ncnc32)[C@H](O)[C@@H]1O)[C@H]1C[C@@H](CCc2nc3cc(C(C)(C)C)ccc3[nH]2)C1 [pinometostat]
inactive: ZNRD2 [2] -0.014 | ZNRF1 isoform 2 = -0.047 | ZPR1 = -0.053 | ZRANB2 = 0.012 | ZW10 = 0.152

Cc1nc(Nc2ncc(C(=O)Nc3c(C)cccc3Cl)s2)cc(N2CCN(CCO)CC2)n1 [dasatinib]
inactive: ZNRD2 [2] 0.058 | ZNRF1 isoform 2 = -0.09 | ZNRF2 = -0.035 | ZPR1 = -0.004 | ZRANB2 = 0.078 | ZW10 = -0.124

CCn1cc(-c2ccnc3[nH]c(-c4cccc(CN(C)C)c4)cc23)c(-c2ccc(NC(=O)N(C)C)cc2)n1
inactive: ZNRD2 [2] 0.125 | ZNRF1 isoform 2 = 0.025 | ZNRF2 = 0.061 | ZPR1 = -0.049 | ZRANB2 = 0.022 | ZW10 = 0.022

COC(=O)[C@H](CCSC)NC(=O)c1ccc(NC[C@@H](N)CS)cc1-c1ccccc1
inactive: ZNRD2 [2] 0.05 | ZNRF1 isoform 2 = 0.069 | ZNRF2 = -0.003 | ZPR1 = 0.009 | ZRANB2 = 0.05 | ZSWIM7 = -0.081 | ZW10 = -0.079

CS(=O)(=O)N1CCN(Cc2cc3nc(-c4cccc5[nH]ncc45)nc(N4CCOCC4)c3s2)CC1 [pictilisib]
inactive: ZNRD2 [2] 0.051 | ZNRF1 isoform 2 = 0.012 | ZNRF2 = 0.031 | ZPR1 = 0.021 | ZRANB2 = 0.01 | ZW10 = 0.005

Cc1ncc(-c2ccnc(Nc3ccc(S(C)(=O)=O)cc3)n2)n1C(C)C
inactive: ZNRD2 [2] -0.019 | ZNRF1 isoform 2 = -0.007 | ZNRF2 = 0.074 | ZPR1 = 0.009 | ZRANB2 = -0.027 | ZSWIM7 = -0.033 | ZW10 = 0

Cc1cccc(-c2[nH]c(C(C)(C)C)nc2-c2ccc3nccnc3c2)n1
inactive: ZNRD2 [2] 0.02 | ZNRF1 isoform 2 = 0.146 | ZPR1 = 0.023 | ZRANB2 = -0.05 | ZW10 = 0.006
